Assay [1] concerns the target T1, GST-fused PARVB (Parvalbumin B as printed) (mouse) (UniProt Q9ES46).
T1 sequence: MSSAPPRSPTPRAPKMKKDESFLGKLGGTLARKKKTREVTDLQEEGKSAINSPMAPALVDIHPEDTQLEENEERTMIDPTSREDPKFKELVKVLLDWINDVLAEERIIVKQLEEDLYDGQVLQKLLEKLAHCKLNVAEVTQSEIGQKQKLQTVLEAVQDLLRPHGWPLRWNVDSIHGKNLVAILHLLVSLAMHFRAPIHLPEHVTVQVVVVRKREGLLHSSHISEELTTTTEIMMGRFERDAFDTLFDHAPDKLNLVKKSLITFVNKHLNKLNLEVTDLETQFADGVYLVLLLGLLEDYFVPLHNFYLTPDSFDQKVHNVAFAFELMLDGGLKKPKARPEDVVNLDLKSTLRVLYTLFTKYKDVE
Kind of assay: pull-down; GST fusion (or GST) bound to GST sepharose beads from cleared E. coli lysate and washed 3x with lysis buffer A; T7-CAPN3c129s bacterial lysate added, overnight at 4°C; beads washed 5x; immunoblot with anti-CAPN3; only the target purified.

Assay [2] has as its target T1, GST-fused PARVB (Parvalbumin B as printed) (mouse). Description: pull-down; GST fusion (or GST) bound to GST sepharose beads from cleared E. coli lysate and washed; IM2 mouse myoblast lysate (buffer B: 50 mM Tris-HCl pH 7.5, 150 mM NaCl, 0.2% Triton X-100; pre-treated with GST sepharose beads) added, overnight at 4°C; beads washed 5x; immunoblot with anti-CAPN3 or anti-PARVB; only the target purified. (In general: A western blot detects proteins with antibodies after separation by electrophoresis.)

These are yes or no findings as the source states them, for the method shown. Binding seen in cells or lysates may run through a third protein. Some entries that bind do so weakly or less than the wild type. Tags and fused reporters may be left off the sequences shown.

B1: T7-CAPN3 C129S (active site mutant of Calpain 3) (enzyme, UniProt P20807 1-821)
chain: MPTVISASVAPRTAAEPRSPGPVPHPAQSKATEAGGGNPSGIYSAIISRNFPIIGVKEKTFEQLHKKCLEKKVLYVDPEFPPDETSLFYSQKFPIQFVWKRPPEICENPRFIIDGANRTDICQGELGDSWFLAAIACLTLNQHLLFRVIPHDQSFIENYAGIFHFQFWRYGEWVDVVIDDCLPTYNNQLVFTKSNHRNEFWSALLEKAYAKLHGSYEALKGGNTTEAMEDFTGGVAEFFEIRDAPSDMYKIMKKAIERGSLMGCSIDDGTNMTYGTSPSGLNMGELIARMVRNMDNSLLQDSDLDPRGSDERPTRTIIPVQYETRMACGLVRGHAYSVTGLDEVPFKGEKVKLVRLRNPWGQVEWNGSWSDRWKDWSFVDKDEKARLQHQVTEDGEFWMSYEDFIYHFTKLEICNLTADALQSDKLQTWTVSVNEGRWVRGCSAGGCRNFPDTFWTNPQYRLKLLEEDDDPDDSEVICSFLVALMQKNRRKDRKLGASLFTIGFAIYEVPKEMHGNKQHLQKDFFLYNASKARSKTYINMREVSQRFRLPPSEYVIVPSTYEPHQEGEFILRVFSEKRNLSEEVENTISVDRPVKKKKTKPIIFVSDRANSNKELGVDQESEEGKGKTSPDKQKQSPQPQPGSSDQESEEQQQFRNIFKQIAGDDMEICADELKKVLNTVVNKHKDLKTHGFTLESCRSMIALMDTDGSGKLNLQEFHHLWNKIKAWQKIFKHYDTDQSGTINSYEMRNAVNDAGFHLNNQLYDIITMRYADKHMNIDFDSFICCFVRLEGMFRAFHAFDKDGDGIIKLNVLEWLQLTMYA
Consider B1, for which, in assay [1], the binding result is “binds”.

B2: endogenous full-length CAPN3 (Calpain 3) of IM2 myoblasts (enzyme, UniProt Q64691 1-821)
chain: MPTVISPTVAPRTGAEPRSPGPVPHPAQGKTTEAGGGHPSGIYSAIISRNFPIIGVKEKTFEQLRRKCLEKKVLYLDPEFPPDETSLFYSQKFPIQFVWKRPPEICENPRFIIGGANRTDICQGDLGDCWFLAAIACLTLNERLLFRVIPHDQSFTENYAGIFHFQFWRYGDWVDVVIDDCLPTYNNQLVFTKSNHRNEFWSALLEKAYAKLHGSYEALKGGNTTEAMEDFTGGVTEFFEIKDAPSDMYKIMRKAIERGSLMGCSIDDGTNMTYGTSPSGLNMGELIARMVRNMDNSLLRDSDLDPRGSDDRPSRTIVPVQYETRMACGLVKGHAYSVTGLEEALFKGEKVKLVRLRNPWGQVEWNGSWSDGWKDWSFVDKDEKARLQHQVTEDGEFWMSYDDFVYHFTKLEICNLTADALESDKLQTWTVSVNEGRWVRGCSAGGCRNFPDTFWTNPQYRLKLLEEDDDPEDSEVICSFLVALMQKNRRKDRKLGANLFTIGFAIYEVPKEMHGNKQHLQKDFFLYNASKARSKTYINMREVSQRFRLPPSEYVIVPSTYEPHQEGEFILRVFSEKRNLSEEAENTISVDRPVKKKKNKPIIFVSDRANSNKELGVDQEAEEGKDKAGPEKRGETPQPRPGHTDQESEEQQQFRNIFRQIAGDDMEICADELKNVLNTVVNKHKDLKTQGFTLESCRSMIALMDTDGSGRLNLQEFHHLWKKIKAWQKIFKHYDTDHSGTINSYEMRNAVNDAGFHLNSQLYDIITMRYADKHMNIDFDSFICCFVRLEGMFRAFNAFDKDGDGIIKLNVLEWLQLTMYA
As to B2, the binding entry in assay [2] was “binds”.

For the origin of these results see paper PMC2774517.
